Assay results taken from paper PMC6819981.
These are yes or no findings as the source states them, for the method shown. In cells and extracts the contact can be indirect. A yes stands for co-enrichment or nearness to the bait. Other partners may have been found.

Protein sequences, listed by entry. Tags and fused reporters are not part of them.
UniProt P41937: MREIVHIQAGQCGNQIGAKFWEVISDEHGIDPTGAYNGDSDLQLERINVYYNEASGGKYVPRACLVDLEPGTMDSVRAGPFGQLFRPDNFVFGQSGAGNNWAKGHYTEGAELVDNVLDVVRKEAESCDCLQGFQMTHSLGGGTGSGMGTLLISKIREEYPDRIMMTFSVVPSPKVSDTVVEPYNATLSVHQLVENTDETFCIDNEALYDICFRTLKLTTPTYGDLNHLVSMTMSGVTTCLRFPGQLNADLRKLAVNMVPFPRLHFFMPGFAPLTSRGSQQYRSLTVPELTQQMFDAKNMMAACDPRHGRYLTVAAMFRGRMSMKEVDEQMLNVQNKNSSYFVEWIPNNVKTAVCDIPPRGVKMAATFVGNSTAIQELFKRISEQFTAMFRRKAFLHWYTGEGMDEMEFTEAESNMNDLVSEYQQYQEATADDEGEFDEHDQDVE
UniProt O17921: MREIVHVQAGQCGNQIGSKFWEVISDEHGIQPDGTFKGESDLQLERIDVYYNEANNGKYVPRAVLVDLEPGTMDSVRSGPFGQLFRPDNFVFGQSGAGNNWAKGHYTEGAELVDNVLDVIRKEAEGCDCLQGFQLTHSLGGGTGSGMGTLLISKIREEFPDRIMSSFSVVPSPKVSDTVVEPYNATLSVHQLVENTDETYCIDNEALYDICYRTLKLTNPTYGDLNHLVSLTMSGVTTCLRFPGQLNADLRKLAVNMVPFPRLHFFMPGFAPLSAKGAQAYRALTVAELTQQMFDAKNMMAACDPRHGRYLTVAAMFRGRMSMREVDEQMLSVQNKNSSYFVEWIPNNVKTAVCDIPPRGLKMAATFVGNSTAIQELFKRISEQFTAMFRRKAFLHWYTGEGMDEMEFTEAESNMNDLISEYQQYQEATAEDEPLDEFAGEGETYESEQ

B1: Nucleoside diphosphate kinase (C. elegans) NDK-1 (protein, UniProt Q93576 1-153)
chain: MSNTERTFIAIKPDGVHRGLVGKIIARFEERGYKLVALKQMTASKAHLEVHYQDLKDKPFFPSLIEYMSSGPVVAMVWQGLDVVKQGRSMLGATNPLASAPGTIRGDFCIQTGRNICHGSDAVDSANREIAHWFKQEEINDYASPFINSWVYE

Each molecule was assayed against T1, DYN-1/Dynamin (C. elegans) (C. elegans (endogenous in worms)) (UniProt P39055) (assay: affinity purification with mass spectrometry; wild-type mixed-stage worm lysate in NETN (50 mM Tris pH 7.5, 150 mM NaCl, 1 mM EDTA, 0.5% NP-40); IP with affinity-purified polyclonal anti-DYN-1, protein A agarose, 4°C; control IP with polyclonal anti-CED-2; LC-MS/MS).
T1 sequence: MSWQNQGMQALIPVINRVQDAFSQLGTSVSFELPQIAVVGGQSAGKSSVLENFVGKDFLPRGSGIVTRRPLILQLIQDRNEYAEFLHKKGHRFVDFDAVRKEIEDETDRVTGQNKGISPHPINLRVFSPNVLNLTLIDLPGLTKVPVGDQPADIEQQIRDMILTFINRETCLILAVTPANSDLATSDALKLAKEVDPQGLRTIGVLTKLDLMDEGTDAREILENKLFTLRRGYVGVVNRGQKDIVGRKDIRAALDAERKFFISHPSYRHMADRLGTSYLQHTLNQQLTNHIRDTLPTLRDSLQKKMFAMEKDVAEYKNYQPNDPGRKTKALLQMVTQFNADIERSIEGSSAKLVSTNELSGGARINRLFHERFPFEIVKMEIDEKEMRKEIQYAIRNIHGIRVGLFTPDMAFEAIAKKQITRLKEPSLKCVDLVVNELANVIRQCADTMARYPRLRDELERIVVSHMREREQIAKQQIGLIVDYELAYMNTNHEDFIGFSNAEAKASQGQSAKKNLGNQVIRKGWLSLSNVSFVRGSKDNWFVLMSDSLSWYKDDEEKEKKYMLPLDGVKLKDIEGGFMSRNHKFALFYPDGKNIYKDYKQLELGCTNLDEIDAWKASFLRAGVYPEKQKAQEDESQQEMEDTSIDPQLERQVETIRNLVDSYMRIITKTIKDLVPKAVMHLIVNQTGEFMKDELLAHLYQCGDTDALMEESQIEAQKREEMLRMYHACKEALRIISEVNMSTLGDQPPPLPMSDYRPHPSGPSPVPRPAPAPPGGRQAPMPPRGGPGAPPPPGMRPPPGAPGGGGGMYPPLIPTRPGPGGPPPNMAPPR

binding, binds:
Tubulin β-2 chain (C. elegans) (from UniProt P52275 1-450)
Tubulin β-4 chain (C. elegans) (from UniProt P41937 1-444)
Tubulin β-chain (C. elegans) (from UniProt O17921 1-449)
B1
